# The RNAGym collection of RNA variant scans (doi:10.1126/science.aae0568)
# Variants at the background level are over-represented here.
# B1: tRNA (parent)
# chain: GUUCCGUUGGCGUAAUGGUAACGCGUCUCCCUCCUAAGGAGAAGACUGCGGGUUCGAGUCCCGUACGGAACG
# Variants of: B1
# Assay: yeast fitness relative to wild type (ratio to wild type); higher = fitter; tRNA-Arg(CCU), competitive growth, 37 C, YPD
# Summary of the method: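 Gene amplicons from the start population and from each of six end populations were read by 100-nucleotide paired-end sequencing. Those end populations came from pooled Saccharomyces cerevisiae strains carrying tRNA-Arg(CCU) gene variants at the native locus, competed in YPD at 37°C for 24 hours. Fitness relative to wild type was worked out from changes in genotype frequencies. Genotypes needed ≥ 100 starting reads, and estimates < 0.5 were set to 0.5.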
row,Variant,yeast fitness
1,GUUCCGUUGGCGUAAUGGUAACGGGUCUCCCUGCUCCGGAGCAGACUGCGGGUUCGAGUCCCGUACGGAACG [C24G C33G A36C A37C A42C],0.505
2,GUCCCGUUGGCGUAAUGGUAUCGCGUCUCCCUCCUAAGGAGAAGACUGCGCGUUCGAGUCCCGUACGGAACG [U3C A21U G51C],≤ 0.5
3,GUUCCCUUGGCGUAAUGGUAACGCGUCUCCCUCCUCAGGAGAAGACUGCGGGUUCGAGUCCCGUCCAGAACG [G6C A36C A65C G67A],≤ 0.5
4,GUUCCGUUAACGUAAUGGUAACGCGUCUCCGUCCUAAGGAGAAGACUGCGGAUUCGAGUCCCGUCCGGAACG [G9A G10A C31G G52A A65C],≤ 0.5
5,GUUCCGUUGGCGUAAUGAUAACGCGUCUCCCUCUUAAGGAGAAGACUACGGGUUCGAGUCCCGUCCGGAACG [G18A C34U G48A A65C],≤ 0.5
6,GUUCCAUUGGCGUAAUGGUAACGGGUCUCCCUCGUAAGGAGAAGACUCCGGGUUCGAGUCCCGUACGGAACG [G6A C24G C34G G48C],≤ 0.5
7,GUUCCGUUGGGGUAAUGGUAACGUGUCUCGAUCCUAAGGAGAGGACUGCGGGUUCGAGUCCCGUACGGAACG [C11G C24U C30G C31A A43G],≤ 0.5
8,GUUCCGUUGGCGGAAUGGUCACGCGUUUCCCUCCUAAGGAGCAGACUGAGGGUUCGAGUCCCGUACGGAACG [U13G A20C C27U A42C C49A],≤ 0.5
9,GUUCCGUUGGCGUAAUGGUAACGCGUCUCCCUCCUAAGGAGAAGACUGCAGGAUCGAGUCUCGUACGGAACG [G50A U53A C61U],0.532
10,GUUCCGUUGGCGUAAUAGUAACGCGUCUCCCUCCUAUGGAGAAGACUGCGGGUUCGAGUACCGUACGGAACG [G17A A37U C60A],≤ 0.5
11,GUUCCGUUGGUGUAAUGGUAACGCGUCUUUCUCCUAAGGAGAAGACUGCGGGUUCGAGACCCGUACGGAACG [C11U C29U C30U U59A],≤ 0.5
12,GUUCCGUUGGCGUAAUGGUAACGCGUCUCCCUCCUAAGGAGAACAUUACGGGUUCGAGUCGCGUACGGAACG [G44C C46U G48A C61G],≤ 0.5
13,GUUCCGUUGGCGUGAUGGUAACGCGUCCCCCUCCUAAGGAGAAGACUGCGGGUUCGAGUCCCGUACAGAACG [A14G U28C G67A],0.534
14,GUUCCGUUGGCGUAAUGGUAACGUGUCUCCCUCCUUAGGAGAAGACUGGGGGUUCGAGUCCCGUACGGAACG [C24U A36U C49G],0.544
15,GUUCCGUUGACGUAAUGGUAACGCGUCUCCCUCCUGAGGAGAAGACUGCGGGUUCGAGUGCCGUACGGAACG [G10A A36G C60G],≤ 0.5
16,GUUCCGUUGGCGUAAUGGUAACGCGCCUCUCUCCUAAGGAGAAGACUGCGGGUUCGGGUCCCGUACGGAACG [U26C C30U A57G],≤ 0.5
17,GUUCCGUUGGUGUAAUGGUGACGCGUGUCCCUCGUAAGGAGAAGACAGCGGGUUCGAGUCCCGUGUGGAACG [C11U A20G C27G C34G U47A A65G C66U],≤ 0.5
18,GUUCCGUUGGCGUAUUGGUAAGGCGUGUCCCUCCUAAGGAGCAGACUGCGGGUUCGAGUCCCCUACGGAACG [A15U C22G C27G A42C G63C],≤ 0.5
19,GUUCAGUUGGCGUGAUGGUAAGGCGUCUCCCUCCUAUGGAGAAGACUGCGGGUGCGAGUCCCGUACGGAACG [C5A A14G C22G A37U U54G],≤ 0.5

row,Variant,yeast fitness
1,GUUCCGUUGGCGUAAUGGUGACGCGUCUCCCUCCUAAGGAGAAGACUGCGGGUUGGAGUCCCAUACGGAACG [A20G C55G G63A],≤ 0.5
2,GUUCCGUUGGCGCAAUGGUAACGUGUCUCCCUCCUAAGGAAAAGACUGCGGGUUCGAGUCCAGUACGGAACG [U13C C24U G41A C62A],≤ 0.5
3,GUUCCGUUGGCGUAAUGGUAACGCGUCUCCCACCUAAGGAGAAGACUGCGGGUUCGUGUCCCGUACGGUACG [U32A A57U A69U],≤ 0.5
4,GUUCCAUUGGCGUAAUGAUAACGCGUCUUCAUCCUAAGGAGAAGACUGCGGGUUCGAGUCCCGUACGGAACG [G6A G18A C29U C31A],≤ 0.5
5,GUUCCGUUGCCGUAAUGGUAACACGUUUCCCUCCUAAGGAGAAGACUGCGGGUUCGAGUCCCGUACGGAACG [G10C G23A C27U],≤ 0.5
6,GUUCCGUUAGCGUAAUGGUAACGCGUCUCCCUCCUAAGGAGAAGACUGAGGGUUUGAGUCCCGUACGGAACG [G9A C49A C55U],≤ 0.5
7,GUUCCGUUGGCGAAAUGGUAAUGCGUCUCCCUCCUAAGGAGAAGACUGCGGGUUCGAGUCCCCUACGGAACG [U13A C22U G63C],≤ 0.5
8,GUUCCGUUGGCGUCAUGGUAACGCGUCUCCCUCCUAAGGAGAAGACUGCGGGUUCGAGUCCCGUACGGGACG [A14C A69G],0.692
9,GUUCCGUCGGCGUAAUGGUAACGCAUCUCCCUCCUAAGGAGAAGACUACGGGUUCGAGUCCGGUACGGUACG [U8C G25A G48A C62G A69U],≤ 0.5
10,GUUCCGUUGGCGUAAUGGAAACGCGUCUCCCUCCUAUGGACAAGACUGCAGGUUCGAGUCCCGUACGGAACG [U19A A37U G41C G50A],≤ 0.5
11,GUUCCGUUGGCGUAAUGGUAACGCGUCUCUCUCCUAAGGAGAAGACUGCGGGUUCGAGACCCGUACGGCACG [C30U U59A A69C],≤ 0.5
12,GUUCGGUUGGCGUAAUGGCACCGCGUCUCCCUCCUAAGAAGAAGACUGCGGGUUCGAGUCCCGUACGGAACG [C5G U19C A21C G39A],≤ 0.5
13,GUUCCGUUGGCCUAAUGGUAACGCGUCUCCCUCCUAAGGACAAGACUGCGGGUUCGGGUCCCGUACGCAACG [G12C G41C A57G G68C],≤ 0.5
14,GUUCCGUUGGCGUACUGGUAACGCGUCUCCCUCCUUGGGAGAAGACUGCGGGUUCGAGUCCCGUCCGGAACG [A15C A36U A37G A65C],≤ 0.5
15,GAUCCGUUGGCGUAAUGGUAACGCGUCUCCCUCCUAAGGAGAAGAAUGCGGGUUCGAAUCCCGUACGGAACG [U2A C46A G58A],0.622
16,GUUCCGUUGGCGUAAUGGUAACGCGUCUCCCUCUUAAGGUGAAGACUGAGGGUUCGAGUCCCGUACGGAACG [C34U A40U C49A],≤ 0.5
17,GUUCCGUUGGCGUAAUGGUGACGCGUCUUCCUCCUAAGGAGAAGACUGCGGGUUCGCGUCCCGUACAGAACG [A20G C29U A57C G67A],≤ 0.5
18,GUUCCGAUGGCGUUCUGGUAACGCGUCUCCCCCCUAAGGAGAAGAUUGCGCGUUCGAGUCCCGUACGGAACG [U7A A14U A15C U32C C46U G51C],≤ 0.5
